The whole screen tested about 52,000 sequences, of which about 210 (0.4%) were called active.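 Rule for the calls: active = gene whose silencing raises cell survival under the drug, median off-target-corrected z-score across its silencing RNAs 2 or more; inactive = the rest.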 The list shows a part of the results.

The nature of this test: Resistance to Poly (ADP-Ribose) Polymerase inhibitor: Gene Identification via Genome-wide siRNA Screen. The settings on record: mouse BRCA2 R2336H ES cells, olaparib, CellTiter-Glo viability; stronger effect = higher value. The essentials:
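Mouse BRCA2 R2336H ES cells were reverse-transfected with siRNA (20 nM final), treated at 48 h with 500 nM olaparib, and read by CellTiter-Glo after 72 h. Scores: MAD-based z per siRNA, median per gene, seed off-target correction.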
Background: Cellular ATP, detected with luciferase, serves as a proxy for viable cell number.
As to GGAGAAACAGCAGUACUUGTT against Hmg20b, the z-score is inactive: 0.942.

On to “GGUCAUCAACAGCAAAAACTT against 1810054G18Rik”, for which the z-score is inactive: 0.286.

For the sequence “GGAAAGCAGACUCAAUGAGTT against 1110018M03Rik”, the z-score was inactive: 1.28.

As for GCUCGCUCUCAAAUUUUCGTT against Catsper1, the z-score is inactive: 1.08.

As for GGUACAGAACUCAUUUUUGTT against Grm6, the z-score was inactive: 1.46.

Regarding CCAUUUGUGUAACACCAAUTT against Wbscr1, the z-score was inactive: -0.277.

Consider GGUGAAAAUCAAGCUUGCUTT against Htr1d, for which the z-score is inactive: 0.216.

Consider GGUGCAUUCCUUGUGAAUGTT against Ctbp2, for which the z-score was inactive: -0.428.

As to “GGAGGAACCUCAGAAACAGTT against D2Ertd750e”, the z-score was inactive: -2.79.

As for CGACUGGGUCUUAUGUUUATT against Tas2r121, the z-score was inactive: -0.307.

On to GCCAUGGUAAACAUCUUAUTT against Olfr827, for which the z-score is inactive: 0.289.

Regarding CCAGAUAAACCAUAUCCCATT against Flrt2, the z-score was inactive: 0.0114.

Consider GGCUCAGAAUUAUCUUAGATT against Mmp7, for which the z-score is inactive: -0.996.

As for GGCAUCACACAGGAGAAAATT against Ppp1r16b, the z-score is inactive: 0.269.

In the case of GGUCGCUACGUUUCUACAATT against Loxl1, the z-score was inactive: -1.05.

For the sequence GCUAAGAACUUGAUCAACCTT against Camk2g, the z-score was inactive: -1.16.

GGGUUUAGAGACCCUGAGATT against Klc2: the z-score is inactive: -1.81.

As for GGAACAAUUGUUUGAACCCTT against Fem1a, the z-score is inactive: 0.44.

Take GGAAGACUCUGAAUUAGGGTT against Dusp13: the z-score is inactive: 0.537.

For the sequence “GCCCAAAAUGUAAUCAACUTT against 1810007M14Rik”, the z-score was inactive: -1.24.

Regarding GGCUCCAAGCACUAAAUAATT against LOC434198, the z-score was inactive: -1.7.

In the case of CCACUGAUGACAUGACUCUTT against V1rd13, the z-score was inactive: 1.86.

For GGUUAAAGGUCAGAUUUAGTT against Dapk2, the z-score was inactive: 0.839.

Regarding CCAAGUUCACAAUUGUUCUTT against Gm457, the z-score was inactive: -0.19.

On to “GGAUGACCAUGAUCACAAATT against C130038G02Rik”, for which the z-score is inactive: -1.88.

Consider GGUAUUGCUGUGCUGAGGATT against Olfr675, for which the z-score was inactive: 0.749.

Regarding CGAAGUUCCUGGAAAAUAUTT against Tbc1d7, the z-score was inactive: -1.98.

With CGAGAACCGACCAUGCAGUTT against Np15, the z-score is inactive: 1.26.

On to “GGUUGAAAUAAGAACCAUATT against 1700073K01Rik”, for which the z-score was inactive: -0.171.

“GGCUGUGCAACAGAAAAUGTT against 2210407C18Rik”: the z-score is inactive: -1.07.

On to GGCUCUGCUAUUCACCAGUTT against Olfr1008, for which the z-score is inactive: -0.687.

As for “GGUACACAUUCACCAUAGCTT against D930031B21Rik”, the z-score is inactive: -0.816.

For “GGAAUAUAGAAGACUAAGUTT against 4921507A12”, the z-score is inactive: -0.202.

Consider ACUGUCAUGCACCCUAAAGTT against Olfr132, for which the z-score was inactive: -1.18.

As to CCAUGAAGACUCAUCUCUGTT against Igsf4b, the z-score is inactive: -1.18.

Take “GGAGGACUAAUGGUGUUCATT against 1810048J11Rik”: the z-score was inactive: -0.937.

With CCCAGGCUAUGACGAUUAUTT against Ssrp1, the z-score is inactive: -0.078.

Take “GGCUUUUGGAAAGUGGCUUTT against 1110054N06Rik”: the z-score was inactive: -0.648.

For the sequence “CGCCAAAAGACAUUGCUCATT against 4933404O11Rik”, the z-score is inactive: 1.25.

For “CCUUUCUCAUGCUAUGGAGTT against 4933430F16Rik”, the z-score was inactive: 1.47.

“GGAUGUAUGUGCCAAGAUCTT against 3322402L07Rik”: the z-score was inactive: 1.44.

On to “GGAUAUAAAGUGGCUCUGGTT against 1700030B17Rik”, for which the z-score was inactive: -0.524.

Turning to ACAUACCCGUGAAUGGCUCTT against Gpr40, the z-score is inactive: -1.05.

“GCUGUCCUGCCGUAAUAGATT against 2010001O09Rik”: the z-score is inactive: 0.271.

In the case of “AAGGGAGUCCAGCAUUUCATT against A330068P14Rik”, the z-score was inactive: -1.16.

Turning to “CGCGGUUGGUUUAUACAUATT against 4833416I09Rik”, the z-score is inactive: -0.427.

As to GGCUGUCUUGAUUUUGAUUTT against C3ar1, the z-score is inactive: -0.0188.

Take GGCUUCUGAUCUUACCUGGTT against BC003266: the z-score was inactive: 0.595.

In the case of GGGACUUUUAAACUUGAACTT against Ube2n, the z-score was inactive: 0.116.

With GGAAAAGGCCAUGAAUAUATT against Mell1, the z-score was inactive: -0.455.

Turning to GCAAGAAUCCUGGCUAUAUTT against Bcap37, the z-score was inactive: -2.52.

In the case of “GGUGUUCGUCAUAUGGAAUTT against 4930549C01Rik”, the z-score was inactive: 2.24.

As for GCGGAAGUCGAAUCUGUCUTT against Aga, the z-score is inactive: 0.488.

As to GGAGUCAUCGAGUUUCGAGTT against Trem2, the z-score was inactive: 0.272.

In the case of GGAAGAAAACAGCGAUUUGTT against Myd116, the z-score was inactive: 0.546.

For the sequence GGGAAAGGACAAAAAAAAATT against Rnf41, the z-score is inactive: 0.582.

“GGCUUUGACAAUCUUUAAGTT against 1200007D18Rik”: the z-score was inactive: 0.464.

Regarding GGACCAUAGAUAUUCUAGATT against BC021921, the z-score is inactive: -0.601.

As for “GGUAUCUACCAGUACGAGATT against 9030607L17Rik”, the z-score was inactive: 0.127.

As to GCUUAGACGACUAGACCUGTT against Slit2, the z-score was inactive: -0.359.

GGGUUUCAAAAACAAACCATT against Phtf1: the z-score is inactive: -0.93.

As to GGAACCUCAUGUCUCACCUTT against Vegfb, the z-score is inactive: -1.38.

As for AUCAGUUUCCCUGAAAAGGTT against Pnma1, the z-score is inactive: 0.0542.

In the case of GGACACAACAAGUCUUAUGTT against Prg2, the z-score is inactive: -0.34.

Consider GGAAUGAAGCCUGAACAGATT against Strc, for which the z-score is inactive: 0.985.

The record behind these values is PubChem BioAssay AID1347423 (Functional Genomics Laboratory (NCATS/FGL), 2020).
